Results are given in words; binding and its absence hold for the method and conditions named. Binding seen in cells or lysates may run through a third protein. Some results given as binding are weak or reduced against the parent protein; the word gives no strength.

Sequences of proteins named here, by UniProt entry; tags and fusion partners are left off.
UniProt Q9NS91: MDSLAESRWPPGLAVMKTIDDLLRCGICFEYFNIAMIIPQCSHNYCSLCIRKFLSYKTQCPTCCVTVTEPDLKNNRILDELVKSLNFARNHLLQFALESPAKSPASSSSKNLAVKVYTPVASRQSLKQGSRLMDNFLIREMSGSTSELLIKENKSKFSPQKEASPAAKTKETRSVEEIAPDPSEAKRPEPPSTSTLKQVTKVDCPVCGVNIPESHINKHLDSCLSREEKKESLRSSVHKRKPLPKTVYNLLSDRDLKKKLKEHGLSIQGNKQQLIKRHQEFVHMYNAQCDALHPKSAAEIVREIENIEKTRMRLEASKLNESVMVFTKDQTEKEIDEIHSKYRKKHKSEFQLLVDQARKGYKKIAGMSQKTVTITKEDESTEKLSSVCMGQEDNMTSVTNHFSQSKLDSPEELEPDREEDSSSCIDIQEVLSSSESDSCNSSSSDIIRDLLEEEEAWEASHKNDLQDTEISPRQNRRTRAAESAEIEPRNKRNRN

The target of the assay is T1, DNA Polymerase η (human (endogenous in OVCAR3)) (UniProt Q9Y253).
T1 sequence: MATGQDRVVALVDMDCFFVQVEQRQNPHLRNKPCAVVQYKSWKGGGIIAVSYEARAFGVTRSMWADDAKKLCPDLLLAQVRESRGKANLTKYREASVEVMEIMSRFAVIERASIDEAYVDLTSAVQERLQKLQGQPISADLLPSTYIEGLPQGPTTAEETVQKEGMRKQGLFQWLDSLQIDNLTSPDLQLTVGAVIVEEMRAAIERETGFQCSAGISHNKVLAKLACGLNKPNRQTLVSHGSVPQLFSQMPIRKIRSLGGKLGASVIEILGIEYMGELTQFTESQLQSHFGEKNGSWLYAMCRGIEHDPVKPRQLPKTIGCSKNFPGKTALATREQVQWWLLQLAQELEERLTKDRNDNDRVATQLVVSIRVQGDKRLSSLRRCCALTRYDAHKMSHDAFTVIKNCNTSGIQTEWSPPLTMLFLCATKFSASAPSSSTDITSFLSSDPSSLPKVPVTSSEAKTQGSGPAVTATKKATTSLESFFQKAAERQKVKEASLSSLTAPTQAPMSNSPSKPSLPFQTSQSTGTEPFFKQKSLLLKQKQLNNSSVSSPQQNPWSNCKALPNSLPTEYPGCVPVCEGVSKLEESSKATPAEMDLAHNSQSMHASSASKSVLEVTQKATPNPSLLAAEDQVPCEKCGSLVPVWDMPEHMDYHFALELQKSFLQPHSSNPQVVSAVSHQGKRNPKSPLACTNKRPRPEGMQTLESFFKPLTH
The assay can be described thus: co-IP; OVCAR3 whole cell lysate in RIPA buffer, pre-cleared with protein A agarose; Polη-specific antibody overnight at 4 °C, captured on protein A beads; western blot.

As for RAD18 (from UniProt Q9NS91 1-495), the binding result is recorded as “binds”.

Values taken from article PMC11868536.
